Source: US11767332B2, “Glucose-sensitive albumin-binding derivatives” (Novo Nordisk A/S, priority 2017, dated 2023)
At least one structure is not confirmed: it was looked up by name or label, or the drawing left a doubt.

Assays:
[1] = Alizarin red (ARS) assay, glucose binding affinity; conditions: 20 mM phosphate buffer pH 7.4, room temperature
Procedure: (§1) The alizarin-red binding assay is a colorimetric assay used to determine the inhibition affinity of boronate compounds to glucose. The assay is based on a colour shift of alizarin-red upon binding to boronate, which shift can be followed by change in absorbance in the 330-340 nm region.
(§2) After 5 minutes of centrifugation at 4000 rpm, the plate is placed in a multi-well spectrometer (SpectraMax, Molecular Devices) for absorption detection.
(§3) The analysis is carried out at room temperature with absorption readings at 330, 340 and 520 nm, respectively. Data obtained for absorption versus concentration of boronate is then fitted (Prism 7, GraphPad) with a sigmoidal function to obtain the Kd value of boronate and ARS.
(§4) Upon complete dissolution of the compound, 200 μM of Alizarin red (ARS) is added to the solution. The ARS-boronate solution is then aliquoted into a 96 multiwell plate (black, flat and clear bottom) 1:1 with appropriate carbohydrate. In particular, D-glucose and L-lactate solutions are prepared in a 20 mM phosphate buffer pH 7.4 at these concentrations respectively: 1000, 500, 250, 100, 50, 25, 10, 5, 2.5, 1, 0.25, 0.1 mM and 2500, 1000, 500, 100, 50, 10, 5, 1, 0.5, 0.1, 0.05, 0.01 mM. […]
(§5) The analysis is carried out at room temperature with absorption readings at 330, 340 and 520 nm, respectively.

[2] = Alizarin red (ARS) assay, lactate binding affinity; conditions: 20 mM phosphate buffer pH 7.4, room temperature, N.D. = not detectable
Procedure: as §1, §2, §3, §4, §5

O=C(O)CN=S(=O)(c1cccc(B(O)O)c1)c1cccc(B(O)O)c1 [Example 36, 2-((Bis(3-boronophenyl)(oxo)-λ6-sulfanylidene)amino)acetic acid]
Kd [1]: 2.3 mM | Kd [2]: 20 mM

O=C(O)CCNC(=O)[C@H](CNC(=O)c1cc(Cl)c2c(c1)B(O)OC2)NC(=O)c1cc(Cl)c2c(c1)B(O)OC2 [Example 33, (S)-3-(2,3-Bis(4-chloro-1-hydroxy-1,3-dihydrobenzo[c][1,2]oxaborole-6-carboxamido)propanamido)propanoic acid]
Kd [1]: 4.5 mM
